{"source": "PubChem BioAssay AID1259405 (NCATS, 2018)", "screen": "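Knock-downs that lift recombinant protein yield in hamster ovary cells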 (primary screen)", "cells": "Chinese hamster CHO-K1 ovary cells with stable secreted eGFP expression", "reagents": "single siRNA against mouse genes, 0.8 pmol siRNA per well (2 µl of 400 nM stock)", "time to read-out": "3 days", "detection": "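Per-well intracellular GFP measured by laser scanning cytometry, plus viability from ATP luminescence, each relative to plate median of non-targeting control wells, in %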", "scale": "GFP, % of control: higher = more GFP per well, higher productivity; viability (ATP), % of control: higher = more viable cells (more ATP)", "rule for the call": "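a knock-down is called active if GFP reaches 120% or more of non-targeting control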", "note": "Shown is one part, drawn at random, of about 50,000 reagents tested. In the full data, about 4,000 (8%) got an active call. 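Mouse siRNA library applied to hamster cells; one well for each siRNA.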 The numbers tell different reagents against one gene apart. Reagent sequences are not shown."}
{"Gene":"Fpr2","reagent":1,"GFP, % of control":85.8,"viability (ATP), % of control":58.8,"Outcome":"inactive"}
{"Gene":"Fpr2","reagent":2,"GFP, % of control":73,"viability (ATP), % of control":76.6,"Outcome":"inactive"}
{"Gene":"Fpr2","reagent":3,"GFP, % of control":79.1,"viability (ATP), % of control":41.7,"Outcome":"inactive"}
{"Gene":"Mptx1","reagent":1,"GFP, % of control":74.3,"viability (ATP), % of control":72.1,"Outcome":"inactive"}
{"Gene":"Mptx1","reagent":2,"GFP, % of control":76.1,"viability (ATP), % of control":88.1,"Outcome":"inactive"}
{"Gene":"Mptx1","reagent":3,"GFP, % of control":96.7,"viability (ATP), % of control":72.8,"Outcome":"inactive"}
{"Gene":"Abhd17b","reagent":1,"GFP, % of control":119,"viability (ATP), % of control":78.7,"Outcome":"inactive"}
{"Gene":"Abhd17b","reagent":2,"GFP, % of control":76.4,"viability (ATP), % of control":77.6,"Outcome":"inactive"}
{"Gene":"Abhd17b","reagent":3,"GFP, % of control":118,"viability (ATP), % of control":113,"Outcome":"inactive"}
{"Gene":"Iqcf4","reagent":1,"GFP, % of control":65.6,"viability (ATP), % of control":50.2,"Outcome":"inactive"}
{"Gene":"Iqcf4","reagent":2,"GFP, % of control":74.5,"viability (ATP), % of control":66.7,"Outcome":"inactive"}
{"Gene":"Iqcf4","reagent":3,"GFP, % of control":56.9,"viability (ATP), % of control":72.5,"Outcome":"inactive"}
{"Gene":"Tshz2","reagent":1,"GFP, % of control":28,"viability (ATP), % of control":35.6,"Outcome":"inactive"}
{"Gene":"Tshz2","reagent":2,"GFP, % of control":50.4,"viability (ATP), % of control":44.8,"Outcome":"inactive"}
{"Gene":"Tshz2","reagent":3,"GFP, % of control":77.8,"viability (ATP), % of control":86.7,"Outcome":"inactive"}
{"Gene":"Dll1","reagent":1,"GFP, % of control":115,"viability (ATP), % of control":84.1,"Outcome":"inactive"}
{"Gene":"Dll1","reagent":2,"GFP, % of control":119,"viability (ATP), % of control":66,"Outcome":"inactive"}
{"Gene":"Dll1","reagent":3,"GFP, % of control":64.5,"viability (ATP), % of control":57.4,"Outcome":"inactive"}
{"Gene":"Zfp944","reagent":1,"GFP, % of control":75,"viability (ATP), % of control":70.9,"Outcome":"inactive"}
{"Gene":"Zfp944","reagent":2,"GFP, % of control":87.3,"viability (ATP), % of control":81.5,"Outcome":"inactive"}
{"Gene":"Zfp944","reagent":3,"GFP, % of control":84.4,"viability (ATP), % of control":83,"Outcome":"inactive"}
{"Gene":"Rad54l","reagent":1,"GFP, % of control":55.3,"viability (ATP), % of control":70.4,"Outcome":"inactive"}
{"Gene":"Rad54l","reagent":2,"GFP, % of control":80.9,"viability (ATP), % of control":68.4,"Outcome":"inactive"}
{"Gene":"Rad54l","reagent":3,"GFP, % of control":72.1,"viability (ATP), % of control":96.5,"Outcome":"inactive"}
{"Gene":"Or4k45","reagent":1,"GFP, % of control":154,"viability (ATP), % of control":94.4,"Outcome":"active"}
{"Gene":"Or4k45","reagent":2,"GFP, % of control":122,"viability (ATP), % of control":82.3,"Outcome":"active"}
{"Gene":"Or4k45","reagent":3,"GFP, % of control":89.7,"viability (ATP), % of control":87.9,"Outcome":"inactive"}
{"Gene":"Rtl8c","reagent":1,"GFP, % of control":82,"viability (ATP), % of control":57.5,"Outcome":"inactive"}
{"Gene":"Rtl8c","reagent":2,"GFP, % of control":72.4,"viability (ATP), % of control":102,"Outcome":"inactive"}
{"Gene":"Rtl8c","reagent":3,"GFP, % of control":102,"viability (ATP), % of control":78.2,"Outcome":"inactive"}
{"Gene":"Il36a","reagent":1,"GFP, % of control":49.9,"viability (ATP), % of control":63.9,"Outcome":"inactive"}
{"Gene":"Il36a","reagent":2,"GFP, % of control":61.1,"viability (ATP), % of control":61.6,"Outcome":"inactive"}
{"Gene":"Il36a","reagent":3,"GFP, % of control":45.6,"viability (ATP), % of control":38.6,"Outcome":"inactive"}
{"Gene":"Or8k30","reagent":1,"GFP, % of control":152,"viability (ATP), % of control":53.8,"Outcome":"active"}
{"Gene":"Or8k30","reagent":2,"GFP, % of control":35.7,"viability (ATP), % of control":50.6,"Outcome":"inactive"}
{"Gene":"Or8k30","reagent":3,"GFP, % of control":113,"viability (ATP), % of control":101,"Outcome":"inactive"}
{"Gene":"Rgl1","reagent":1,"GFP, % of control":103,"viability (ATP), % of control":93.4,"Outcome":"inactive"}
{"Gene":"Rgl1","reagent":2,"GFP, % of control":145,"viability (ATP), % of control":80.8,"Outcome":"active"}
{"Gene":"Rgl1","reagent":3,"GFP, % of control":59.2,"viability (ATP), % of control":57.4,"Outcome":"inactive"}
{"Gene":"Vtn","reagent":1,"GFP, % of control":57.2,"viability (ATP), % of control":103,"Outcome":"inactive"}
{"Gene":"Vtn","reagent":2,"GFP, % of control":77.3,"viability (ATP), % of control":85.4,"Outcome":"inactive"}
{"Gene":"Or10g1b","reagent":1,"GFP, % of control":67.6,"viability (ATP), % of control":60.3,"Outcome":"inactive"}
{"Gene":"Or10g1b","reagent":2,"GFP, % of control":82.6,"viability (ATP), % of control":98.8,"Outcome":"inactive"}
{"Gene":"Or10g1b","reagent":3,"GFP, % of control":82.4,"viability (ATP), % of control":48.4,"Outcome":"inactive"}
{"Gene":"Slitrk4","reagent":1,"GFP, % of control":70.7,"viability (ATP), % of control":89.4,"Outcome":"inactive"}
{"Gene":"Slitrk4","reagent":2,"GFP, % of control":60.3,"viability (ATP), % of control":83.5,"Outcome":"inactive"}
{"Gene":"Slitrk4","reagent":3,"GFP, % of control":49.7,"viability (ATP), % of control":91.8,"Outcome":"inactive"}
{"Gene":"Slc25a44","reagent":1,"GFP, % of control":53.5,"viability (ATP), % of control":77.7,"Outcome":"inactive"}
{"Gene":"Slc25a44","reagent":2,"GFP, % of control":89.1,"viability (ATP), % of control":75.6,"Outcome":"inactive"}
{"Gene":"Slc25a44","reagent":3,"GFP, % of control":94.3,"viability (ATP), % of control":111,"Outcome":"inactive"}
{"Gene":"Oxa1l","reagent":1,"GFP, % of control":75,"viability (ATP), % of control":75.7,"Outcome":"inactive"}
{"Gene":"Oxa1l","reagent":2,"GFP, % of control":110,"viability (ATP), % of control":94.1,"Outcome":"inactive"}
{"Gene":"Oxa1l","reagent":3,"GFP, % of control":121,"viability (ATP), % of control":92.3,"Outcome":"active"}

8 entries from above, arranged by “GFP, % of control”, lowest first.
{"Gene":"Or8k30","reagent":2,"GFP, % of control":35.7,"viability (ATP), % of control":50.6,"Outcome":"inactive"}
{"Gene":"Vtn","reagent":1,"GFP, % of control":57.2,"viability (ATP), % of control":103,"Outcome":"inactive"}
{"Gene":"Rgl1","reagent":3,"GFP, % of control":59.2,"viability (ATP), % of control":57.4,"Outcome":"inactive"}
{"Gene":"Vtn","reagent":2,"GFP, % of control":77.3,"viability (ATP), % of control":85.4,"Outcome":"inactive"}
{"Gene":"Rgl1","reagent":1,"GFP, % of control":103,"viability (ATP), % of control":93.4,"Outcome":"inactive"}
{"Gene":"Or8k30","reagent":3,"GFP, % of control":113,"viability (ATP), % of control":101,"Outcome":"inactive"}
{"Gene":"Rgl1","reagent":2,"GFP, % of control":145,"viability (ATP), % of control":80.8,"Outcome":"active"}
{"Gene":"Or8k30","reagent":1,"GFP, % of control":152,"viability (ATP), % of control":53.8,"Outcome":"active"}
